According to article PMC2637432:
These are yes or no findings as the source states them, for the method shown. Binding seen in cells or lysates may run through a third protein. Some results given as binding are weak or reduced against the parent protein; the word gives no strength. Sequences can lack the tags named with a protein.

Target: Grb2 adaptor protein (mouse (endogenous in FAK-/- fibroblasts)), Q60631
Assay: co-IP
Conditions: remark: other sources report otherwise

B1: wild-type focal adhesion kinase (FAK), HA-tagged, tyrosine-phosphorylated (active FAK), P34152 1-1052 (protein)
chain: MAAAYLDPNLNHTPSSSTKTHLGTGMERSPGAMERVLKVFHYFESSSEPTTWASIIRHGDATDVRGIIQKIVDSHKVKHVACYGFRLSHLRSEEVHWLHVDMGVSSVREKYELAHPPEEWKYELRIRYLPKGFLNQFTEDKPTLNFFYQQVKSDYMQEIADQVDQEIALKLGCLEIRRSYWEMRGNALEKKSNYEVLEKDVGLKRFFPKSLLDSVKAKTLRKLIQQTFRQFANLNREESILKFFEILSPVYRFDKECFKCALGSSWIISVELAIGPEEGISYLTDKGCNPTHLADFNQVQTIQYSNSEDKDRKGMLQLKIAGAPEPLTVTAPSLTIAENMADLIDGYCRLVNGATQSFIIRPQKEGERALPSIPKLANSEKQGMRTHAVSVSETDDYAEIIDEEDTYTMPSTRDYEIQRERIELGRCIGEGQFGDVHQGVYLSPENPALAVAIKTCKNCTSDSVREKFLQEALTMRQFDHPHIVKLIGVITENPVWIIMELCTLGELRSFLQVRKYSLDLASLILYAYQLSTALAYLESKRFVHRDIAARNVLVSSNDCVKLGDFGLSRYMEDSTYYKASKGKLPIKWMAPESINFRRFTSASDVWMFGVCMWEILMHGVKPFQGVKNNDVIGRIENGERLPMPPNCPPTLYSLMTKCWAYDPSRRPRFTELKAQLSTILEEEKVQQEERMRMESRRQATVSWDSGGSDEAPPKPSRPGYPSPRSSEGFYPSPQHMVQTNHYQVSGYPGSHGIPAMAGSIYQGQASLLDQTELWNHRPQEMSMWQPSVEDSAALDLRGMGQVLPPHLMEERLIRQQQEMEEDQRWLEKEERFLKPDVRLSRGSIDREDGSFQGPTGNQHIYQPVGKPDPAAPPKKPPRPGAPGHLSNLSSISSPADSYNEGVKLQPQEISPPPTANLDRSNDKVYENVTGLVKAVIEMSSKIQPAPPEEYVPMVKEVGLALRTLLATVDETIPALPASTHREIEMAQKLLNSDLGELISKMKLAQQYVMTSLQQEYKKQMLTAAHALAVDAKNLLDVIDQARLKMLGQTRPH
modifications: here or on the partner: phosphotyrosine (detected with anti-phospho-Tyr; site not given)
Q: Which binding does the source give for B1 here?
A: binds
